Experimental findings from publication PMC3787081, “The Heteromultimeric Debranching Enzyme Involved in Starch Synthesis in Arabidopsis Requires Both Isoamylase1 and Isoamylase2 Subunits for Complex Stability and Activity” (PLoS ONE, 2013) are described below.

These are yes or no findings as the source states them, for the method shown. In cells and extracts the contact can be indirect. These calls come from enrichment with a bait or labelling near it, and not all partners need be listed. No binding means not detected with the bait. Tags and fused reporters may be left off the sequences shown.

This experiment addresses T1, ISA2-TAP (ISA2 with a C-terminal tandem affinity purification tag) (Arabidopsis) (UniProt Q8L735).
T1 sequence: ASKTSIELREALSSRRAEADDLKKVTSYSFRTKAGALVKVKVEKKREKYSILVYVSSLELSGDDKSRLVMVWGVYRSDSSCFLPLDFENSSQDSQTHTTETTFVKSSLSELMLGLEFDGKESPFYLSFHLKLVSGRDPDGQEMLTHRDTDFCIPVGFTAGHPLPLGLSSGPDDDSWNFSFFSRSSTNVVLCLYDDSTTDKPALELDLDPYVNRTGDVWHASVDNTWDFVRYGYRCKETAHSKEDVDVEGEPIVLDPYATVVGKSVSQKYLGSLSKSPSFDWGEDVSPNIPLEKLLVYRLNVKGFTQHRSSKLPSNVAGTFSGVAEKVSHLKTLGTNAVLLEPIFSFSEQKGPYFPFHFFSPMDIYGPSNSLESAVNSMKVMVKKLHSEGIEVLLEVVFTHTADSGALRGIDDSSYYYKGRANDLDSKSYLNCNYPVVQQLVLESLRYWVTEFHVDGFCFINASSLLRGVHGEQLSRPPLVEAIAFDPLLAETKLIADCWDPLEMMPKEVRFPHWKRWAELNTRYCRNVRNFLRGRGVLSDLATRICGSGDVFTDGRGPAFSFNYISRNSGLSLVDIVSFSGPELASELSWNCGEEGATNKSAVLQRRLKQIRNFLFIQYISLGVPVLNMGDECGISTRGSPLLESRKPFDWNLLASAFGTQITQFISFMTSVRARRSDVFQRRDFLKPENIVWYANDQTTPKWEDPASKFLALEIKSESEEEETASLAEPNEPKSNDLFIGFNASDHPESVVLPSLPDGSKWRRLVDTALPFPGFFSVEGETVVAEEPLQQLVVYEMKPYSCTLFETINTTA
Put plainly: affinity purification with mass spectrometry; tandem affinity purification of ISA2-TAP from leaf extracts (IgG-Sepharose, TEV elution, Calmodulin Sepharose with 2 mM CaCl2, EGTA elution); SDS-PAGE, silver stain, in-gel tryptic digestion, LC-MS/MS; wild-type extracts as control.

B1: Rubisco activase (protein, UniProt P10896 59-474)
chain: AVKEDKQTDGDRWRGLAYDTSDDQQDITRGKGMVDSVFQAPMGTGTHHAVLSSYEYVSQGLRQYNLDNMMDGFYIAPAFMDKLVVHITKNFLTLPNIKVPLILGIWGGKGQGKSFQCELVMAKMGINPIMMSAGELESGNAGEPAKLIRQRYREAADLIKKGKMCCLFINDLDAGAGRMGGTTQYTVNNQMVNATLMNIADNPTNVQLPGMYNKEENARVPIICTGNDFSTLYAPLIRDGRMEKFYWAPTREDRIGVCKGIFRTDKIKDEDIVTLVDQFPGQSIDFFGALRARVYDDEVRKFVESLGVEKIGKRLVNSREGPPVFEQPEMTYEKLMEYGNMLVMEQENVKRVQLAETYLSQAALGDANADAIGRGTFYGKGAQQVNLPVPEGCTDPVAENFDPTARSDDGTCVYNF
As to B1, the binding entry is given as “no binding”.
